The assay concerns the target Scube2 (Signal sequence, CUB domain, EGF-like protein 2), FLAG-tagged (human) (UniProt Q9NQ36). The assay can be described thus: SEC; conditioned medium with 10% FCS; Superdex200 10/300 GL, PBS, 4°C; fractions TCA-precipitated and immunoblotted (same stripped blot reprobed).

Results are given in words; binding and its absence hold for the method and conditions named. Tags and fused reporters may be left off the sequences shown.

B1: Scube2 (Signal sequence, CUB domain, EGF-like protein 2), FLAG-tagged (protein, UniProt Q9NQ36 32-999)
chain: VPPGRGRAAGPQEDVDECAQGLDDCHADALCQNTPTSYKCSCKPGYQGEGRQCEDIDECGNELNGGCVHDCLNIPGNYRCTCFDGFMLAHDGHNCLDVDECLENNGGCQHTCVNVMGSYECCCKEGFFLSDNQHTCIHRSEEGLSCMNKDHGCSHICKEAPRGSVACECRPGFELAKNQRDCILTCNHGNGGCQHSCDDTADGPECSCHPQYKMHTDGRSCLEREDTVLEVTESNTTSVVDGDKRVKRRLLMETCAVNNGGCDRTCKDTSTGVHCSCPVGFTLQLDGKTCKDIDECQTRNGGCDHFCKNIVGSFDCGCKKGFKLLTDEKSCQDVDECSLDRTCDHSCINHPGTFACACNRGYTLYGFTHCGDTNECSINNGGCQQVCVNTVGSYECQCHPGYKLHWNKKDCVEVKGLLPTSVSPRVSLHCGKSGGGDGCFLRCHSGIHLSSDVTTIRTSVTFKLNEGKCSLKNAELFPEGLRPALPEKHSSVKESFRYVNLTCSSGKQVPGAPGRPSTPKEMFITVEFELETNQKEVTASCDLSCIVKRTEKRLRKAIRTLRKAVHREQFHLQLSGMNLDVAKKPPRTSERQAESCGVGQGHAENQCVSCRAGTYYDGARERCILCPNGTFQNEEGQMTCEPCPRPGNSGALKTPEAWNMSECGGLCQPGEYSADGFAPCQLCALGTFQPEAGRTSCFPCGGGLATKHQGATSFQDCETRVQCSPGHFYNTTTHRCIRCPVGTYQPEFGKNNCVSCPGNTTTDFDGSTNITQCKNRRCGGELGDFTGYIESPNYPGNYPANTECTWTINPPPKRRILIVVPEIFLPIEDDCGDYLVMRKTSSSNSVTTYETCQTYERPIAFTSRSKKLWIQFKSNEGNSARGFQVPYVTYDEDYQELIEDIVRDGRLYASENHQEILKDKKLIKALFDVLAHPQNYFKYTAQESREMFPRSFIRLLRSKVSRFLRPYK
B1: the binding result is on record as “no binding”.

These data come from article PMC11412720.
